Among the data in PubChem BioAssay AID1347423 (Functional Genomics Laboratory (NCATS/FGL), 2020) are z-score values, retold here.

Screen size: about 52,000 sequences; about 210 (0.4%) were called active.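 The calls were made as follows: active = gene whose silencing raises cell survival under the drug, median off-target-corrected z-score across its silencing RNAs 2 or more; inactive = the rest.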 The list shows a part of the results.

A short description of this assay: Resistance to Poly (ADP-Ribose) Polymerase inhibitor: Gene Identification via Genome-wide siRNA Screen. The conditions noted are these: mouse BRCA2 R2336H ES cells, olaparib, CellTiter-Glo viability; stronger effect = higher value. Summed up:
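Mouse BRCA2 R2336H ES cells were reverse-transfected with siRNA (20 nM final), treated at 48 h with 500 nM olaparib, and read by CellTiter-Glo after 72 h. Scores: MAD-based z per siRNA, median per gene, seed off-target correction.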
A general note: Cellular ATP, detected with luciferase, serves as a proxy for viable cell number.
Consider GCUGGUCGAUCAGAAAUGCTT against Cfi, for which the z-score was inactive: 0.113.

On to “GGAUUGCUGUGCCUUAUGATT against 2010004A03Rik”, for which the z-score is inactive: 0.503.

On to CCCUAUCAUCGAUGGUCGCTT against Rnpc1, for which the z-score is inactive: 0.143.

Regarding “GUUAGGUGACUACACUACATT against D5Ertd689e”, the z-score was inactive: -0.0239.

For the sequence CGAGAAGUGCUGACUCAAUTT against Gtlf3a, the z-score is inactive: -0.147.

As to GGAACAGAUCUCUGAUAUATT against Rpo2tc1, the z-score is inactive: -1.78.

Consider “GGUCAGCAUUUGCUAUGAATT against 4930488E11Rik”, for which the z-score was inactive: 0.678.

For the sequence GGACAUUCUUCAGAACUGGTT against Ogfr, the z-score was inactive: 1.16.

As to GGAUGAGGAGGAUACAAAGTT against Eif3s8, the z-score is inactive: -3.26.

On to GGUGUGGUCAUUCCAAAUGTT against Ms4a8a, for which the z-score is inactive: -2.57.

GGUGAUGCGAUCUUCUUUATT against Anxa10: the z-score was inactive: -0.0853.

Regarding GGCUUACCUACAACAAGUUTT against Ccnt1, the z-score is inactive: 0.152.

With “GGCAAUGAGAGUGCAUAUGTT against 2310061G07Rik”, the z-score was inactive: -2.66.

Regarding GGGAACAAAUGUUUCAUUGTT against Mfap3, the z-score was inactive: 0.199.

As for CGACGAAGAUAUUUACAGUTT against Vav1, the z-score is inactive: -0.0388.

With “GGAAAUUAAAGACCAGUAGTT against 2810025M15Rik”, the z-score was inactive: -0.232.

As to GGAAGACAAUGAUGAUGUUTT against Clns1a, the z-score is inactive: -1.66.

For GGCAUCUUCAUGUACUUGCTT against Olfr1445, the z-score is inactive: 2.1.

Consider GGAGAAUUCCAAUUUUAGGTT against Pcdhb14, for which the z-score is inactive: 1.39.

Consider GCCAGAACCCGUCUUUUCATT against Ccpg1, for which the z-score is inactive: -1.85.

Consider GCAAUGUGGGUUAUUAUUUTT against Olfr963, for which the z-score was inactive: -0.297.

With GGAAAGGCAAAUACCAAGCTT against Ddx25, the z-score is inactive: 1.83.

In the case of CCAUGAAAAGUGUGAAUGCTT against Fap, the z-score is inactive: 1.3.

In the case of CCUGUCAGUUAACAUUUGATT against Acadsb, the z-score is inactive: 1.48.

For “GGCAUUUUGGAACCUAUAATT against 9030418M05Rik”, the z-score is inactive: 1.13.

In the case of GGCUAAGGAAAUUUUAACGTT against Ppp2cb, the z-score is inactive: 0.945.

As for “GGAGCUCAUGAAGAUGAAGTT against 1700051E09Rik”, the z-score was inactive: 0.674.

Regarding GGAUGUUGGCAGCCGAACATT against Siat5, the z-score was inactive: 0.434.

On to “GGGAAAAAAAAGCAUCACUTT against 1110004B15Rik”, for which the z-score is inactive: -0.128.

GGAGACUGACAAGAAAAUUTT against AU018829: the z-score was inactive: -0.855.

Consider “GGAAAAAACCUUUGACCAATT against 4930532D21Rik”, for which the z-score was inactive: 0.198.

Take GAGCCUUCUAAGUCUGCACTT against Hist1h2bb: the z-score is inactive: 0.996.

In the case of CCUAACACUAGUCUCAGAATT against Olfr873, the z-score is inactive: 1.3.

Regarding GUGAAGUCUUCAGCAGUCUTT against Sprr2f, the z-score is inactive: -0.257.

Take “GCAAUGACUUGAACUAUUUTT against 4930578C19Rik”: the z-score is inactive: 0.564.

For CGGAUACCGUAGUUUGGUGTT against Lipe, the z-score is inactive: -0.616.

Take GCCCAGCCUACUAACAACCTT against Plxnb1: the z-score was inactive: -0.416.

As to GUAUUUGGGACUGAAUUGCTT against AV284857, the z-score is inactive: -1.66.

Consider “GGGAAAGUGCUCUAGCAAGTT against D8Ertd233e”, for which the z-score was inactive: -0.229.

On to GCCACUUUCUGGUUUUGUATT against Tas2r126, for which the z-score is inactive: 0.784.

In the case of CCGUGUAAACCUGGCAUCATT against Znhit1, the z-score was inactive: 1.52.

On to GGCUGGUUACCUGCAUAAGTT against Sh3bp2, for which the z-score was inactive: -0.404.

Regarding “CCAUUGUCAAGUCAAGAGCTT against 4933440M02Rik”, the z-score is inactive: 0.42.

Turning to “GCAUGCAGACUUACAGAAGTT against 2610034E18Rik”, the z-score was inactive: 0.251.

“GGAGUACCUGGACAUUGUGTT against 1110032N12Rik”: the z-score is inactive: 0.677.

Regarding “GGAUUAUGAUUUGCCUGAUTT against 4932414N04Rik”, the z-score is inactive: -0.719.

Turning to GGACAAUUUACACGACCAGTT against Folr1, the z-score was inactive: -0.179.

Take CGGAAAAAGAAGGACAUCCTT against Mesdc2: the z-score is inactive: 1.02.

Regarding “GCAAAUUAGGCUCUUAUCCTT against 4930402H24Rik”, the z-score is inactive: 0.641.

Take GGGUGUUGGAGUUUGCCAUTT against BC034068: the z-score was inactive: 0.0452.

Regarding “GGAAGAAAUCAAGGUAUCATT against 9330155M09Rik”, the z-score is inactive: -2.71.

Consider CGAUUUCAACCGUGAAUCUTT against Tcf12, for which the z-score is inactive: 2.9.

Regarding GGUUUGGCAUCUAAAGAGCTT against Olfr1412, the z-score is inactive: 1.71.

With GGUAAAGAAAUGAGGACCGTT against Tas2r130, the z-score is inactive: 0.311.

As for “CGCACAUGCCACUUCCACATT against 4933425A18Rik”, the z-score is inactive: -1.07.

As to GGAUCCUGCCUUAAGUCAATT against Gadd45a, the z-score was inactive: 2.58.

Take GGGCUGCUGCUUAGCAAUCTT against Egln3: the z-score was inactive: -0.555.

As for GCUGCCUAUAUUCAUUUAATT against Zhx3, the z-score is inactive: 0.943.

On to CGCAGUCAAAUUUGAAAGUTT against Car5b, for which the z-score is inactive: -1.01.

Take GGAAGAAGAUCACCAUCAUTT against Ifi16: the z-score is inactive: -2.37.

For GCAGUUCUCCUAUUUCAUCTT against Cdc45l, the z-score is inactive: 0.857.

Regarding GGCUCAGUUUAAGAAAACATT against Pkp2, the z-score was inactive: 1.39.

On to GGCUACCGCCACAUUGAUUTT against Akr1a4, for which the z-score is inactive: -0.59.

Take “GGAGAAGAAGAACAGGACATT against 9130020G10Rik”: the z-score is inactive: -3.07.

With GGGCUGACCAUAACUUGAUTT against Unc5d, the z-score is inactive: 1.13.
